Some of the results follow.
Compound: CC1Cc2ccccc2N1C(=O)C1CCCN(C1)C(=O)CCl (mixture of isomers) [TRIM25 ligand 11 (diastereomer mixture)]
Test: probe-labelled cysteine peptide fold change vs DMSO (competition) (log2 fold change); higher = less target engagement (more negative = stronger competition)
Conditions: 50 µM; THP-1; incubation time: 4 h
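Note: competitive chemoproteomic profiling in live THP-1 cells with an iodoacetamide desthiobiotin (IA-DTB) probe, comparing probe-labelled peptide intensities in compound-treated cells against DMSO-treated controls.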

Protein sequences, listed by entry. Tags and fused reporters are not part of them. Lines headed by an entry give the natural chain unless they say otherwise; changes in a name come on top.
UniProt O60701: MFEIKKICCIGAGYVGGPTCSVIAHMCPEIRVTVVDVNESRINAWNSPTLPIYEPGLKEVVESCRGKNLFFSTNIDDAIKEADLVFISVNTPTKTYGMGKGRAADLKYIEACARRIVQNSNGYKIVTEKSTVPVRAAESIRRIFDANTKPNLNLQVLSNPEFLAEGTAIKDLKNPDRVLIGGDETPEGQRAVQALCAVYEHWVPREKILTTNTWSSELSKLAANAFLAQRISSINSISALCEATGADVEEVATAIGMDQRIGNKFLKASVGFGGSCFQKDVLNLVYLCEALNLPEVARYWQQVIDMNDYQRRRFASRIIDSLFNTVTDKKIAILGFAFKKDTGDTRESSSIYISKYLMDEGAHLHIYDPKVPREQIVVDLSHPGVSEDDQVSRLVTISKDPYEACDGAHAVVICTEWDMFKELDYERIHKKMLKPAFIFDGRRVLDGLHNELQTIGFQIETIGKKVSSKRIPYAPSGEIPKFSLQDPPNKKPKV
UniProt Q92900: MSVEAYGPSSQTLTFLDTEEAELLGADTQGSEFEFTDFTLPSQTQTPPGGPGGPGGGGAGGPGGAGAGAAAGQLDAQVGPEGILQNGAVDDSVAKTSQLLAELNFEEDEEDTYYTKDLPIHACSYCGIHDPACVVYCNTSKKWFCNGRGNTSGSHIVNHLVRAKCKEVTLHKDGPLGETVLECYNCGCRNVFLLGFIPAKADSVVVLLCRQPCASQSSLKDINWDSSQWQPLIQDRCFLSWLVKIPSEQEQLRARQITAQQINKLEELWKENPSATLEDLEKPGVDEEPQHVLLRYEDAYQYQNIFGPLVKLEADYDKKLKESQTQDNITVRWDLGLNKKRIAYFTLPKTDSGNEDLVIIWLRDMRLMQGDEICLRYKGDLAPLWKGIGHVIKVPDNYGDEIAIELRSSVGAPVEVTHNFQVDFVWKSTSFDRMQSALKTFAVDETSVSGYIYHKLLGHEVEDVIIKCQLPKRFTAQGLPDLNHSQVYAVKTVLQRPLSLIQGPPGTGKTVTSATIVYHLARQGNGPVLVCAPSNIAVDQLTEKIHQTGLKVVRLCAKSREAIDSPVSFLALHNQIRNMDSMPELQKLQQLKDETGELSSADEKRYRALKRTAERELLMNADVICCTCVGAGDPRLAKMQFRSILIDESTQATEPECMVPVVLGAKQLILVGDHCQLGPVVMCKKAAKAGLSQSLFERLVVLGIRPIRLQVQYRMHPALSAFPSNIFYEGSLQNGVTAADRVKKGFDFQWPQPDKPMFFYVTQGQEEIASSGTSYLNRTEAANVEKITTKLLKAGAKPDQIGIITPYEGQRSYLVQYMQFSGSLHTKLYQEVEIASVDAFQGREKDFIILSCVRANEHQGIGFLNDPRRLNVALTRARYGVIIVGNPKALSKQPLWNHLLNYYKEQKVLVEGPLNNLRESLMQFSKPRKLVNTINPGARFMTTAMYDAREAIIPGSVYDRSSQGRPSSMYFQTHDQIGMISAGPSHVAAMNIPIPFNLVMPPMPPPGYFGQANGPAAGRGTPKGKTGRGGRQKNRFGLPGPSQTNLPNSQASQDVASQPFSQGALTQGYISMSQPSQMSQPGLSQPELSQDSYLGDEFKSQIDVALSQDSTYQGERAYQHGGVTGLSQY
UniProt O94874: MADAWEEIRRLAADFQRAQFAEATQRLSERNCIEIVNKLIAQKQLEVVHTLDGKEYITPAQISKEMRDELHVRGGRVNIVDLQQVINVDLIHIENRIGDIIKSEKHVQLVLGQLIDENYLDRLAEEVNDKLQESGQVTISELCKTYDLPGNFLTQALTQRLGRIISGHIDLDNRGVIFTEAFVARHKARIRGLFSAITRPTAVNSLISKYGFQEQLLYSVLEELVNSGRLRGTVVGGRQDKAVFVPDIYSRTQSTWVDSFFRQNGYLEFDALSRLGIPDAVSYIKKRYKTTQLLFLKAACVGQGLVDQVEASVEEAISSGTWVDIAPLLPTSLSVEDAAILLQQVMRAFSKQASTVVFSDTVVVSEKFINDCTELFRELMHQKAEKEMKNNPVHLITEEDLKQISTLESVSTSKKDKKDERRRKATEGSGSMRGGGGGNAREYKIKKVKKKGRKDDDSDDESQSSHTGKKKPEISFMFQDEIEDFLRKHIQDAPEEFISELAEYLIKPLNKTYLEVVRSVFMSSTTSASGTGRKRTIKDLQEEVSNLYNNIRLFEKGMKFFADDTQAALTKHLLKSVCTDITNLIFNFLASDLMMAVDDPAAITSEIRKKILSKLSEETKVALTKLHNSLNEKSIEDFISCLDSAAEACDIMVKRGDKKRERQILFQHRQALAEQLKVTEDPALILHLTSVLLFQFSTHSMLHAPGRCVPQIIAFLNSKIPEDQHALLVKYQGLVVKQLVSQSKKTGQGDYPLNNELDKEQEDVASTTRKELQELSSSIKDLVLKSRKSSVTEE
UniProt P54578: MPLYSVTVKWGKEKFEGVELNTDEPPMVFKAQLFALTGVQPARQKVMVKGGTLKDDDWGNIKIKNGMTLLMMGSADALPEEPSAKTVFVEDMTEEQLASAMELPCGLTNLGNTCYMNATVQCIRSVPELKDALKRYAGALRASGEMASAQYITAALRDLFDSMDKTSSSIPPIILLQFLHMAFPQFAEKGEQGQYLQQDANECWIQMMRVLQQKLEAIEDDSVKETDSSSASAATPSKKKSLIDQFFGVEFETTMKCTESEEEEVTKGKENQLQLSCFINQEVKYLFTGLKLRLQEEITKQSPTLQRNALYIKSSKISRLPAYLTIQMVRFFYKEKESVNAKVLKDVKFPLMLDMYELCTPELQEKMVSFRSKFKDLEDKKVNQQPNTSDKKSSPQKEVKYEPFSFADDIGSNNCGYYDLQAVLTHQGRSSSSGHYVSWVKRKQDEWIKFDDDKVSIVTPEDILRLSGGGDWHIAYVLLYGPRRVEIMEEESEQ
UniProt O14795: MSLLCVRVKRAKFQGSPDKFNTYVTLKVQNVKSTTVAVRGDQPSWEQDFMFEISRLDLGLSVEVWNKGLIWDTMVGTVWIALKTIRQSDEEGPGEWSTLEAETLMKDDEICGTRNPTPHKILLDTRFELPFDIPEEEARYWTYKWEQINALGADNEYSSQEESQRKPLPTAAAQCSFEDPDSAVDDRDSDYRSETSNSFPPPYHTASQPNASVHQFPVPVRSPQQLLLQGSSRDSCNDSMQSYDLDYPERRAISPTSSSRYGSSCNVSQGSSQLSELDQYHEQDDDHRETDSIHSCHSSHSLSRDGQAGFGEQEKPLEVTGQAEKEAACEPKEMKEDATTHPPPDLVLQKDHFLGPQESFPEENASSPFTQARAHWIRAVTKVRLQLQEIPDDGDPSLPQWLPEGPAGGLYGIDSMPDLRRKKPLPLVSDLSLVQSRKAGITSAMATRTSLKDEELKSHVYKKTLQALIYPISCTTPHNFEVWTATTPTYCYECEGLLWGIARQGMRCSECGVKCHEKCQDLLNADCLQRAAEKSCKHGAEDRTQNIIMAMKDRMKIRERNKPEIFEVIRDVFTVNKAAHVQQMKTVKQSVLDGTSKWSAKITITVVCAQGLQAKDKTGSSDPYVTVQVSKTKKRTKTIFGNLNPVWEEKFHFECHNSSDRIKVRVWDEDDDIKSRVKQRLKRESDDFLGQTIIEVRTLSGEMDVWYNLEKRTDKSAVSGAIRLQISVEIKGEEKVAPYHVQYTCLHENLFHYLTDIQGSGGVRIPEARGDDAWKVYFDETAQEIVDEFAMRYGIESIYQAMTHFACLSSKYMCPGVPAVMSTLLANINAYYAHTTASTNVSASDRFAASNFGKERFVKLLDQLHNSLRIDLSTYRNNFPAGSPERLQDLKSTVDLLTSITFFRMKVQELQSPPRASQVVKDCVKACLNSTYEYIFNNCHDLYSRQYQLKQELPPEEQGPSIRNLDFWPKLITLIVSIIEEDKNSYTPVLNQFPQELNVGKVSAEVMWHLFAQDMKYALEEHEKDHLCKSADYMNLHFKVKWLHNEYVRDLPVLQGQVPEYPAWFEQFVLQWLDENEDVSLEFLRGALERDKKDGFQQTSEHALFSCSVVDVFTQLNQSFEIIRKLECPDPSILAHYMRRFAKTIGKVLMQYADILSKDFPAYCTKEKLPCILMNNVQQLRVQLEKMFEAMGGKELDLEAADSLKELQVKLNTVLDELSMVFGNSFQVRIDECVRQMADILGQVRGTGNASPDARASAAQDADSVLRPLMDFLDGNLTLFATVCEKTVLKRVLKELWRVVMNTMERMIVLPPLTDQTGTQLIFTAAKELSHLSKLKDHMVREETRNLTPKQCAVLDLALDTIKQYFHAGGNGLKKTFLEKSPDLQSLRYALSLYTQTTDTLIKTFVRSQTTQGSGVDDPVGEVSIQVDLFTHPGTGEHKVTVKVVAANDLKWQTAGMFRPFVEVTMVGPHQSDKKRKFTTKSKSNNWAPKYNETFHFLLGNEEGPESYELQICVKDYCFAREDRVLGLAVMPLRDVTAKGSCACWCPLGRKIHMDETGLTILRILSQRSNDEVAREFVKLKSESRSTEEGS
UniProt Q9Y5K5, whole entry, looked up: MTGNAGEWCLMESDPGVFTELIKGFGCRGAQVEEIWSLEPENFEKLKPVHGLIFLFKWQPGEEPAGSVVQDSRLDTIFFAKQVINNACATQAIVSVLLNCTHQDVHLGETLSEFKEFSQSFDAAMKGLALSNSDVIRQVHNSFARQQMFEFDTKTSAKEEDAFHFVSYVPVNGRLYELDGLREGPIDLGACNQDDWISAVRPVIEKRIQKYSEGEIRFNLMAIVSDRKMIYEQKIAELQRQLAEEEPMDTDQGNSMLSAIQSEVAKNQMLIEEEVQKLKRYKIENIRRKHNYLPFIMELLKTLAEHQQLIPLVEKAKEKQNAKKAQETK
UniProt Q96PU4: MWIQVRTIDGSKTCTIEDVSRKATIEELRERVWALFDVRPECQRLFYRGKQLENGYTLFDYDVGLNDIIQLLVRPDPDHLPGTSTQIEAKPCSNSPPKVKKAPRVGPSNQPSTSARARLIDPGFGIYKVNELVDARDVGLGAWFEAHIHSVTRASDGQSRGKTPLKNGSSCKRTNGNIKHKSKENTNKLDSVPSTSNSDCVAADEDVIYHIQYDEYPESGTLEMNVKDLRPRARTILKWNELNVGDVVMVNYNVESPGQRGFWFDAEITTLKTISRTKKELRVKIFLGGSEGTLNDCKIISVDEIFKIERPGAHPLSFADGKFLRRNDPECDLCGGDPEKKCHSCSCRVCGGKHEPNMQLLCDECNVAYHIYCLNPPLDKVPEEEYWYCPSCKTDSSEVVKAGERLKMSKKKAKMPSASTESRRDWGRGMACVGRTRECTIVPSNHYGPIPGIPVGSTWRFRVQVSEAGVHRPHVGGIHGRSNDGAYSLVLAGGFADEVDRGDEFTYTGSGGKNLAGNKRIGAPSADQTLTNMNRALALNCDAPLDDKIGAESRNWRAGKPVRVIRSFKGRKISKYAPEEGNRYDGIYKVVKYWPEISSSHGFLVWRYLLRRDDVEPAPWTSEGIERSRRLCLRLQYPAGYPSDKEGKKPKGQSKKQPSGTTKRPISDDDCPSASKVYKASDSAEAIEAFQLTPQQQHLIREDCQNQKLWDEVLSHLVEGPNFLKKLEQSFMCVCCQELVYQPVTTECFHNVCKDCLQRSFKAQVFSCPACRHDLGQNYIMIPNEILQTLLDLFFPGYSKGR

Target | probe-labelled cysteine peptide fold change
USP37_Q86T82_538_AEELEYSCEK (UniProt Q86T82) | 0.339
UGDH_O60701_20_ICCIGAGYVGGPTCSVIAHMCPEIR (UniProt O60701) | 0.121
UROS_P10746_241_ALAAQGLPVSCTAESPTPQALATGIRK (UniProt P10746) | -0.126
UPF1_Q92900_657_SILIDESTQATEPECMVPVVLGAK (UniProt Q92900) | -0.135
UFL1_O94874_641_SIEDFISCLDSAAEACDIMVK (UniProt O94874) | -0.0396
UFL1_O94874_649_SIEDFISCLDSAAEACDIMVK (UniProt O94874) | 0.22
USP14_P54578_203_GEQGQYLQQDANECWIQMMR (UniProt P54578) | 0.0657
USP48_Q86UV5_514_WLDESTPTKPIDNHACLCSHDK (UniProt Q86UV5) | -0.184
UBR7_Q8N806_82_QALYACSTCTPEGEEPAGICLACSYECHGSHK (UniProt Q8N806) | -0.386
UHRF1_Q96T88_410_ECTIVPSNHYGPIPGIPVGTMWR (UniProt Q96T88) | -0.456
UNC13B_O14795_1352_QCAVLDLALDTIK (UniProt O14795) | -0.0592
USP20_Q9Y2K6_8_DLCPHLDSIGEVTKEDLLLK (UniProt Q9Y2K6) | -0.352
UBR7_Q8N806_182_HLGAIPPESGDFQEMVCQACMK (UniProt Q8N806) | -0.153
UCHL5_Q9Y5K5_9_TGNAGEWCLMESDPGVFTELIK (UniProt Q9Y5K5) | -0.251
UHRF2_Q96PU4_541_ALALNCDAPLDDK (UniProt Q96PU4) | 0.0116
UHRF2_Q96PU4_704_ASDSAEAIEAFQLTPQQQHLIREDCQNQK (UniProt Q96PU4) | 0.0146
URB2_Q14146_478_LFEEVLGVICRPAAEALR (UniProt Q14146) | 0.101
USP11_P51784_468+471_STLVCPDCGNVSVTFDPFCYLSVPLPISHKR (UniProt P51784) | -0.218
USP14_P54578_277_ENQLQLSCFINQEVK (UniProt P54578) | -0.0219
USP19_O94966_656+659_LVCPVCAK (UniProt O94966) | 0.0811
